Article PMC4375495 (The Journal of Biological Chemistry, 2015)
No constants are given. Whether binding was seen depends on the method and setting. Some results given as binding are weak or reduced against the parent protein; the word gives no strength.

By UniProt entry, the sequences of proteins in these tests, tags left out.
UniProt P27986: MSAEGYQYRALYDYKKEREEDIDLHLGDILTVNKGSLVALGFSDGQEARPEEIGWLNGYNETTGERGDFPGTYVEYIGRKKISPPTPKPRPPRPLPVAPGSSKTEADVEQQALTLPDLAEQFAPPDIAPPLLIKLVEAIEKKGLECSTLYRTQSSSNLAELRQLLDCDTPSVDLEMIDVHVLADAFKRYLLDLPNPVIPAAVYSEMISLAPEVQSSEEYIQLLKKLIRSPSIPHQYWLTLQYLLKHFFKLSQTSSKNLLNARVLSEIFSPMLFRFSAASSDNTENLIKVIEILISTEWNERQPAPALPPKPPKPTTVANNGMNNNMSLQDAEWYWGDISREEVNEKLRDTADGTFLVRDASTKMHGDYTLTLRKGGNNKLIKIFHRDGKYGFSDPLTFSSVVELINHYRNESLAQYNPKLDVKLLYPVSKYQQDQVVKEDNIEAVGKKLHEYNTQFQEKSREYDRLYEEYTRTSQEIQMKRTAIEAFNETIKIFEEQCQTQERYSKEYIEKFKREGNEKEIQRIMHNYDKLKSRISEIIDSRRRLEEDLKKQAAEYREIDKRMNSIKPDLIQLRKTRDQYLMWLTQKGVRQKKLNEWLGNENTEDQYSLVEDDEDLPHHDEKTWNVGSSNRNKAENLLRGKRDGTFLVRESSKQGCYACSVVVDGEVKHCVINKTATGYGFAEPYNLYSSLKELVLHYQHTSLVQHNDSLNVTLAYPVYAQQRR

Molecular target: T1, murine p110δ catalytic subunit (murine) (UniProt O35904)
T1 sequence: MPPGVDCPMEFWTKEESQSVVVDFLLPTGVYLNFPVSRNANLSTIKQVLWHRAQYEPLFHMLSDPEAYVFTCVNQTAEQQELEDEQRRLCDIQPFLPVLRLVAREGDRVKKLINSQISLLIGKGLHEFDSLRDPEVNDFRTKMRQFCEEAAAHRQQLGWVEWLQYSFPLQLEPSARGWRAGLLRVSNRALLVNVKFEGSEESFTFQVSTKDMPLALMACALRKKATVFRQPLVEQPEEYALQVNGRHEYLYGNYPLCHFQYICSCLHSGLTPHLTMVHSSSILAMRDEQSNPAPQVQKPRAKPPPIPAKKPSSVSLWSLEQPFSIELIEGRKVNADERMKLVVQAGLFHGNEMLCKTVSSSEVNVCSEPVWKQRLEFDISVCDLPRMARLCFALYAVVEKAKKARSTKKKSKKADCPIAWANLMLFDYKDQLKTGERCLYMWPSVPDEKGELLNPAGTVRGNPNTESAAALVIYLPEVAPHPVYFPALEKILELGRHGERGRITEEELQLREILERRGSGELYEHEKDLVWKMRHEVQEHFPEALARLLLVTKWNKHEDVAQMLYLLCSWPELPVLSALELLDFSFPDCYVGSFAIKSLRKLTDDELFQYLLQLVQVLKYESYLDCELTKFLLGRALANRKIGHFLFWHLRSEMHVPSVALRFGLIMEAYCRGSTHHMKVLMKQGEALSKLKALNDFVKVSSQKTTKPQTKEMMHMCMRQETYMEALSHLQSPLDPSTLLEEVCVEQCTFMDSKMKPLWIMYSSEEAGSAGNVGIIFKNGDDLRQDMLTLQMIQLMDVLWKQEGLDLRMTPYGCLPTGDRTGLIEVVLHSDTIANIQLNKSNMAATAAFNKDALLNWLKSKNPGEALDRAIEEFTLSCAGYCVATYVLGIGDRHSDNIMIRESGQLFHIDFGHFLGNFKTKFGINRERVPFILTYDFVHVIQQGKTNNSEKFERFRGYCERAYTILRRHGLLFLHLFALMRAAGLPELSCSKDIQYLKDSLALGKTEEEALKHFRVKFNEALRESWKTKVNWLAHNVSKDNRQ
Assay: co-purification (Ni-NTA, SEC); p110 with N-terminal polyhistidine tag co-expressed with p85α in Sf21 cells; purified on a Ni-NTA FF column and buffer-exchanged on a KW2003 SEC column

binding: binds
Substance: p85α regulatory subunit (from UniProt P27986 1-724)
